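A panel of P. falciparum strains inside erythrocytes is exposed to compounds for three days, then a DNA-binding dye reports the amount of parasite DNA.
Each compound was titrated across a series from about 0.000037 to 29 µM.
The number is the fitted AC50, the concentration giving a half-maximal change in signal; a lower value means higher potency, whether the curve shows a decrease or an increase.
Calls follow the curve class and fit quality: every row here is inconclusive, covering signal-raising curves and weak, poorly fitted, partial or highest-dose-only inhibition curves.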

Values are in µM.
All entries here are filed as inconclusive.
These entries are mostly ones the record files as inconclusive; other results of the assay are not listed here.
A potency from a partial, single-point or poor curve is only a rough figure.

Compound,tested on / at,potency (µM),remark
O=C1OCCN1/N=C/c1ccc([N+](=O)[O-])o1,CP237,12.59,"inhibitor, single point"
O=C1OCCN1/N=C/c1ccc([N+](=O)[O-])o1,CP335,12,"inhibitor, partial curve, poor fit"
O=C1OCCN1/N=C/c1ccc([N+](=O)[O-])o1,CP256,12.59,"inhibitor, single point"
O=C1OCCN1/N=C/c1ccc([N+](=O)[O-])o1,FAB9,11.22,"inhibitor, single point"
O=C1OCCN1/N=C/c1ccc([N+](=O)[O-])o1,GB4,7.569,"inhibitor, partial curve"
O=C1OCCN1/N=C/c1ccc([N+](=O)[O-])o1,SC27B,17.78,"inhibitor, single point"
O=C1OCCN1/N=C/c1ccc([N+](=O)[O-])o1,CP252,10,"inhibitor, single point"
O=C1OCCN1/N=C/c1ccc([N+](=O)[O-])o1,CP215,16.94,"inhibitor, single point"
O=C1OCCN1/N=C/c1ccc([N+](=O)[O-])o1,DIV14,13.46,"inhibitor, single point"
O=C1OCCN1/N=C/c1ccc([N+](=O)[O-])o1,AS120,17.78,"inhibitor, single point"
O=C1OCCN1/N=C/c1ccc([N+](=O)[O-])o1,DFO2036,11.22,"inhibitor, single point"
O=C1OCCN1/N=C/c1ccc([N+](=O)[O-])o1,JCK,11.22,"inhibitor, single point"
O=C1OCCN1/N=C/c1ccc([N+](=O)[O-])o1,CP185,15.85,"inhibitor, single point"
O=C1OCCN1/N=C/c1ccc([N+](=O)[O-])o1,CP250,10,"inhibitor, single point"
O=C1OCCN1/N=C/c1ccc([N+](=O)[O-])o1,CP286,10,"inhibitor, single point"
O=C1OCCN1/N=C/c1ccc([N+](=O)[O-])o1,PC49,11.22,"inhibitor, single point"
O=C1OCCN1/N=C/c1ccc([N+](=O)[O-])o1,ECU,10,"inhibitor, single point"
O=C1OCCN1/N=C/c1ccc([N+](=O)[O-])o1,CP211,19.01,"inhibitor, single point"
NCCNc1cccc2ccccc12,CP237,11.22,"inhibitor, partial curve"
NCCNc1cccc2ccccc12,DIV14,13.46,"inhibitor, partial curve"
NCCNc1cccc2ccccc12,DFO2036,17.78,"inhibitor, single point"
NCCNc1cccc2ccccc12,CP335,19.01,"inhibitor, partial curve, poor fit"
NCCNc1cccc2ccccc12,GB4,12,"inhibitor, single point"
NCCNc1cccc2ccccc12,W2,15.1,"inhibitor, single point"
NCCNc1cccc2ccccc12,TAB113,17.78,"inhibitor, single point"
NCCNc1cccc2ccccc12,Dd2,11.22,"inhibitor, single point"
NCCNc1cccc2ccccc12,7G8,12.59,"inhibitor, single point"
NCCNc1cccc2ccccc12,ICS,14.13,"inhibitor, single point"
NCCNc1cccc2ccccc12,SC27B,17.78,"inhibitor, single point"
COc1cc2c(cc1OC)[C@@H](Cc1cc(OC)c(OC)c(OC)c1)[N+](C)(CCCOC(=O)CC/C=C/CCC(=O)OCCC[N+]1(C)CCc3cc(OC)c(OC)cc3[C@H]1Cc1cc(OC)c(OC)c(OC)c1)CC2 (some centres not stated),PC26,0.0048,"inhibitor, partial curve, poor fit"
C=C[C@@]1(C)C[C@H](OC(=O)CSC(C)(C)CNC(=O)[C@@H](N)C(C)C)[C@@]2(C)C(C)CC[C@@]3(CCC(=O)[C@@H]32)[C@H](C)[C@H]1O (some centres not stated),PC15,8.912,"inhibitor, partial curve"

Some entries from above, unchanged:

| Compound | tested on / at | potency (µM) | remark |
|---|---|---|---|
| `O=C1OCCN1/N=C/c1ccc([N+](=O)[O-])o1` | CP211 | 19.01 | inhibitor, single point |
| `NCCNc1cccc2ccccc12` | DFO2036 | 17.78 | inhibitor, single point |
| `O=C1OCCN1/N=C/c1ccc([N+](=O)[O-])o1` | PC49 | 11.22 | inhibitor, single point |
| `NCCNc1cccc2ccccc12` | ICS | 14.13 | inhibitor, single point |

From PubChem BioAssay record AID504749 (NCATS, 2011).